For two molecules, binding results are on record in patent publication US20250145722A1, “ANTI-GAL3 ANTIBODIES AND METHODS OF USE” (TrueBinding, Inc., priority 2020, published 2025).

The chains behind the UniProt entries cited, without tags or fusion partners. Where a name states a change or a piece, a line headed by the entry shows the natural chain unless it says otherwise.
UniProt P17931: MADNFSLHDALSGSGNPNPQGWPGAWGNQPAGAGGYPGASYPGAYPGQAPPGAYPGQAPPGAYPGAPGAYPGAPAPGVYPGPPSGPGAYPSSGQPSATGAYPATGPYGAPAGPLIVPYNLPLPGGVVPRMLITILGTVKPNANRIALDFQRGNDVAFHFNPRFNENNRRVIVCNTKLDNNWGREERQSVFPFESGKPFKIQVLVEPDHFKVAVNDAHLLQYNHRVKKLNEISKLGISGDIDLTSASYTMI

No constants are given. Whether binding was seen depends on the method and setting. Some results given as binding are weak or reduced against the parent protein; the word gives no strength.

Assay [1] deals with human Galectin-3 (Gal3), full-length recombinant (human) (UniProt P17931). In words: titration of the antibody on a panel of galectins; set-up not given, species of the galectins not given.
For assay [2], the target named is C-terminal domain of rhGal-3C (SinoBio #ME13SE2105 IM1-2), amino acids 112-250 (human) (UniProt P17931). In words: condition: 300 nM (start of the dilution series by paragraph 897; not printed on the sheet); Gator biosensor kinetics (legend: SPR), 6H6 mIgG2a loaded on probes, rhGalectin-3-CRD as analyte.
For assay [3] the target is unchanged. Nature of the assay: Gator biosensor kinetics, antibody loaded on probe.

B1: TB006 (antibody, V domains shown)
VH: QVQLVQSGAEVKKPGASVKVSCKASGYSFTNYYMHWVRQAPGQRLEWMGWIYPGSGNTNYNEKFQGRVTITADTSASTAYMELSSLRSEDTAVYYCSTAPGGFDVWGQGTTVTVSS
VL: DIVMTQTPLSLSVTPGQPASISCKSSKSLLHSDGITYLYWYLQKPGQSPQLLIYRMSNLASGVPDRFSGSGSGTDFTLKISRVEAEDVGVYYCAQMLEFPLTFGQGTKLEIKR
For B1, in assay [1], the binding entry is on record as “binds”.

B2: 6H6.2D6 (antibody, human IgG4 S228P, kappa, V domains shown)
VH: QIQLVQSGPELKKPGETVKISCKASGYTFTTYGMSWVKQAPGKGLKWMAWINTYSGVPTYADDFKGRFAFSLETSASTAYLQINNLTNEDTATYFCARGPYAMDYWGQGTSVTVSS
VL: DIQMTQTTSSLSASLGDRVTISCSASQGISNYLNWYQQKPDGTVKLLIYYTSSLHSGVPSRFSGSGSGTDYSLTISNLEPEDIATYYCQQYSELPYTFGSGTKLEIKR
With B2, the binding entry in assay [2] was “no binding”; in assay [3], “no binding (tested: 300 nM)”.
